From article PMC12092002
These are yes or no findings as the source states them, for the method shown. In cells and extracts the contact can be indirect. Some entries that bind do so weakly or less than the wild type.

Legend:
[1] = target: T1, NRA-2::VN173 (C. elegans) (UniProt A5JYX8); experiment: split reporter; BiFC in vivo in C. elegans: split mVenus (VN173 and VC155); FLWR-1 fusion from its own promoter, partner fusion in body wall muscle cells; fluorescence imaged with x100 objective, 460 nm excitation, 500 ms exposure
T1 sequence: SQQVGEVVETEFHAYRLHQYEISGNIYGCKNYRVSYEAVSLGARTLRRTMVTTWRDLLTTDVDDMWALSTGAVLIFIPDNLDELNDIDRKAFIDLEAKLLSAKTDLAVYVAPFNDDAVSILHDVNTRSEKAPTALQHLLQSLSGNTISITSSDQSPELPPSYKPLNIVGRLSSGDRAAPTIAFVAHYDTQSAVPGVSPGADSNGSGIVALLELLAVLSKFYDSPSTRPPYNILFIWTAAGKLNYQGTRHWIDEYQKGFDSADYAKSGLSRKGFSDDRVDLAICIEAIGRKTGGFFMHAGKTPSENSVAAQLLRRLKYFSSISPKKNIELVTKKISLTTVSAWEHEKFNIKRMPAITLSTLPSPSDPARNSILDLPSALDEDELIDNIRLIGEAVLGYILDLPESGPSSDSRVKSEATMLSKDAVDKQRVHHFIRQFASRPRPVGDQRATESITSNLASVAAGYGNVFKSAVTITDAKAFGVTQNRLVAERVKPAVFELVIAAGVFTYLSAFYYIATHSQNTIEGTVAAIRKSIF

[2] = target: T2, UNC-1::VN173 (C. elegans) (UniProt Q21190); experiment: as above
T2 sequence: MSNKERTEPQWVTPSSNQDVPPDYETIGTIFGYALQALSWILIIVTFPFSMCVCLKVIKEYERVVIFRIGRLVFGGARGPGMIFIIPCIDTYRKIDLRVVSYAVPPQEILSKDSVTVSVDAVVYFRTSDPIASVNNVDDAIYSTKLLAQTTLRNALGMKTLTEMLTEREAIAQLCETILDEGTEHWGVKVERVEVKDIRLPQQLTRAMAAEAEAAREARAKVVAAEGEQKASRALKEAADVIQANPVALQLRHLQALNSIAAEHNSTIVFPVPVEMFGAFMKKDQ

binding [1]: binds | binding [2]: no binding
B1: FLWR-1::VC155 (protein, UniProt Q93533 1-166)
chain: MGAAASGVSTQMQAEHDPNAAFPWWVRFLAKGVAILGGFLSLFFGVLGLITLSATCMVAILLQMTAGALVIALEAPFCCQFVDFIEKIARFSESRALWHKAAIYGAMGLIPIFLCIELNTILGSGTIFASGVIYGFMALGKKADRSNMMAAGDPAWSPQVNQSNIP
